Assay results published in patent publication US20240309105A1 (Boehringer Ingelheim, published 2024).
These are yes or no findings as the source states them, for the method shown. Some entries that bind do so weakly or less than the wild type.

Key:
human CD40-Fc protein = target: T1, human CD40-Fc protein (human, UniProt P25942 21-193); experiment: ForteBio Octet, with and without 50% human serum
T1 construct: also called recombinant CD40 protein; not shown: Fc part

[1] = target: T2, cynomolgus monkey CD40 on cells (cynomolgus monkey, UniProt G7PG38 21-278); experiment: directly labeled antibody, B cells and platelets in cynomolgus monkey whole blood
T2 construct: whole, on cells; Cell surface CD40 on cynomolgus B cells and platelets; also called Cyno CD40; CD40 on cynomolgus monkey B cells and platelets

[2] = target: T2, cynomolgus monkey CD40 on cells; experiment: flow cytometry, FITC-labeled antibody on cynomolgus platelets

binding (human CD40-Fc protein)	binding [1]	binding [2]	Binder
binds	–	–	Antibody C (antibody, human IgG1, kappa, L234A L235A, V domains shown, also called humanized 2H11) VH: QVQLVQSGAEVKKPGASVKVSCTASGFNIKDYYVHWVKQAPGQGLEWMGRIDPEDGDSKYAPKFQGKATMTADTSTSTVYMELSSLRSEDTAVYYCTTSYYVGTYGYWGQGTLVTVSS VL: DIQMTQSPSSLSASVGDRVTITCSASSSVSYMLWFQQKPGKAPKLLIYSTSNLASGVPSRFSGSGSGTDFTLTISSLQPEDFATYYCQQRTFYPYTFGGGTKVEIKR
–	–	binds	2H11 (antibody, V domains shown, Mouse monoclonal antibody; also called murine anti-CD40 mAb 2H11) VH: EVQLQQSGAELVRPGASVKLSCTASGFNIKDYYVHWVKQRPEKGLEWIGRIDPEDGDSKYAPKFQGKATMTADTSSNTAYLHLSSLTSEDTAVYYCTTSYYVGTYGYWGQGTTLTVSS VL: QIVLTQSPAIMSASPGEKVTITCSASSSVSYMLWFQQKPGTSPKLWIYSTSNLASGVPARFGGSGSGTSYSLTISRMEAEDAATYYCQQRTFYPYTFGGGTKLEIK

Further lines, the binder ahead of its results:

Binder	binding (human CD40-Fc protein)	binding [1]	binding [2]
Antibody A (antibody, human IgG1, kappa, L234A L235A, V domains shown, also called humanized 20E2) VH: EVQLVESGGGLVKPGGSLRLSCAASGFTFSDYGMHWVRQAPGKGLEWVAYISSGNRIIYYADTVKGRFTISRDNAKNSLYLQMNSLRAEDTALYYCARQDGYRYAMDYWAQGTLVTVSS VL: DIVMTQSPDSLAVSLGERATMSCKSSQSLLNSGNQKNYLTWHQQKPGQPPKLLIYWTSTRESGVPDRFSGSGSGTDFTLTISSLQAEDVAVYYCQNDYTYPLTFGGGTKVEIKR	binds	–	–
Antibody B (antibody, human IgG1, kappa, L234A L235A, V domains shown, also called humanized 20E2) VH: EVQLVESGGGLVKPGGSLRLSCAASGFTFSDYGMHWVRQAPGKGLEWVAYISSGNRIIYYADTVKGRFTISRDNAKNSLYLQMNSLRAEDTAVYYCARQDGYRYAMDYWGQGTLVTVSS VL: DIVMTQSPDSLAVSLGEKVTINCKSSQSLLNSGNQKNYLTWHQQKPGQPPKLLIYWTSTRESGVPDRFSGSGSGTDFTLTISSLQAEDVAVYYCQNDYTYPLTFGGGTKVEIKR	binds	binds	–
